Chains of the proteins cited; added tags and fusions are not shown.
UniProt Q14191, whole entry, looked up: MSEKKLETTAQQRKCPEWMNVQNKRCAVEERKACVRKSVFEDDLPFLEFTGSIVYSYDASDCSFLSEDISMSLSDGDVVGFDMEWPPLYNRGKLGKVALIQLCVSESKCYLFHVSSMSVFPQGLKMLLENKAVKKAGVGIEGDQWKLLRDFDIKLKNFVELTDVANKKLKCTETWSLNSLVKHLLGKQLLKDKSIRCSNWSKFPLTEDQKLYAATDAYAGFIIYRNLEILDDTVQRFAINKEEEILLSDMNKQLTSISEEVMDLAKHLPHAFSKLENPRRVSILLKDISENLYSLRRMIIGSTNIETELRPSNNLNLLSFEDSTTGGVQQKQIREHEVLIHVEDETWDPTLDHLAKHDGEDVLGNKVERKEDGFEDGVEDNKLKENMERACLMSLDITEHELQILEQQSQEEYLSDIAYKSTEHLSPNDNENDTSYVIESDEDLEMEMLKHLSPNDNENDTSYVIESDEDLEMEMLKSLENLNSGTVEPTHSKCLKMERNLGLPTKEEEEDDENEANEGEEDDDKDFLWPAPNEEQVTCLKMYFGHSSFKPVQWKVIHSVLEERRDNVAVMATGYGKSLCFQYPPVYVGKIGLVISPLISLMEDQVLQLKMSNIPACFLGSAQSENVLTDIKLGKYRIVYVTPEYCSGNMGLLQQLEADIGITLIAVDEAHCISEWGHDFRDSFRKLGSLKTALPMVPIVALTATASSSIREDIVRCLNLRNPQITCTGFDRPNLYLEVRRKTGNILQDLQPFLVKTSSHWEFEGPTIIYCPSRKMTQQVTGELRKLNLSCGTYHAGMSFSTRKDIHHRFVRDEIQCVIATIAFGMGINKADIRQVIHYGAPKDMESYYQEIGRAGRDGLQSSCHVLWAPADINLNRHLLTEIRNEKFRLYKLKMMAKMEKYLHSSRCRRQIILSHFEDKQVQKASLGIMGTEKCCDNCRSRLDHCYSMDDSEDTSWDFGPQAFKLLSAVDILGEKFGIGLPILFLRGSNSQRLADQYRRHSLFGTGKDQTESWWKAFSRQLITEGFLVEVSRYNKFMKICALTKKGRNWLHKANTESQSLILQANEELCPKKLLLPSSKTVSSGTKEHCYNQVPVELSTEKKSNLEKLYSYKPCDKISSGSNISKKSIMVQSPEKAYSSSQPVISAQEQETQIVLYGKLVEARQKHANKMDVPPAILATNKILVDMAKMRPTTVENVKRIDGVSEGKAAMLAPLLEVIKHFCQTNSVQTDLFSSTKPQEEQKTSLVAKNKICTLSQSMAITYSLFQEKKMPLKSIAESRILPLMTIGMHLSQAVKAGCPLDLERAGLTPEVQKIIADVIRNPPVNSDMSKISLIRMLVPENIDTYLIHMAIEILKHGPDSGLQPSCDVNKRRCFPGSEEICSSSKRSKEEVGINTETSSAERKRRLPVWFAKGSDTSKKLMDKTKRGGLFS

In all, about 360,000 compounds went through this assay and about 1,700 (0.47%) were called active. Calls come from the whole dose curve; as a rule, active = well fitted inhibition curve with a large enough effect; inconclusive = small, poorly fitted or top-dose-only effect; inactive = no such curve, though single readings can be large or run the other way. Inconclusive means that the source gave no clear call. A potency beside an inconclusive call is a rough fit, not a confirmed value.
What follows are molecules tested against Bifunctional 3'-5' exonuclease/ATP-dependent helicase WRN (Homo sapiens) (UniProt Q14191) (assay: qHTS for Inhibitors of WRN Helicase). Settings: WRN helicase unwinding, fluorescent forked duplex, kinetic; series mostly up to 114 µM.
From the text: Inhibition of DNA repair is proposed as a strategy for combating cancer. Synthetic lethality is an approach that exploits preexisting DNA repair deficiencies in certain tumors to develop inhibitors of DNA repair pathways that compensate for the tumor-associated DNA repair deficiency. Because helicases play critical roles in the DNA damage response and in DNA repair, particularly in actively dividing and replicating cells, characterization of synthetic lethal relationships of DNA helicases may be of value in developing improved anticancer treatment strategies; moreover, small molecules that specifically target a given DNA helicase may be useful for understanding its role in cellular nucleic acid metabolism. The goal of this project is to identify small molecule, non-covalent chemical inhibitors of the Werner syndrome (WS) helicase (WRN), which plays an important role in cell proliferation, the replication stress response, and DNA repair. […] The WRN gene product that is defective in the chromosomal instability disorder has DNA helicase and exonuclease activities and interacts with a number of nuclear proteins to maintain genomic stability. We will employ an optimized high-throughput screening assay that utilizes a fluorescence intensity modulation scheme with a fluorophore and quencher positioned near one another within a duplex deoxyoligonucleotide that contains a single forked structure. After a high-throughput screen of the ~350,000-member Molecular Libraries Small Molecule Repository (MLSMR) collection, followed by data analysis and hit selection, a panel of confirmatory, as well as secondary and ternary, assays will be employed to identify high-confidence WRN inhibitors. Structure-activity relationships will be investigated for the top candidate inhibitor series through medchem expansion. These are the results of the primary screening campaign against the MLSMR. NIH Chemical Genomics Center [NCGC] NIH Molecular Libraries Probe Centers Network [MLPCN] MLPCN Grant: MH096530 Assay Submitter (PI): Robert Brosh, National Institute of Aging
Three muL of reagents (buffer in columns 3 and 4 as negative controls; WRN at 20 nM final concentration in columns 1 and 2 as positive controls; columns 5-48 as test reactions) will be dispensed into a 1536-well Greiner black plate via solenoid-valve based nanoliter dispensers. Compounds (23 nL each in columns 5-48) and control (23 nL each in column 2 as dose-response) will be transferred via a Kalypsys pintool equipped with a 1536-pin array. Plates will be incubated for 15 min at room temperature, and then 1 µL of substrate (100 nM forked duplex oligonucleotide and 2 mM ATP final concentrations) will be added to start reaction, and plate will be transferred into a ViewLux high-throughput CCD imager where reaction progress is measured in kinetic mode using standard red-fluorescence optics (excitation filter 525 nm, emission filter 598 nm).
In the case of `CS(=O)(=O)C1=NSC2=NC(=O)/C(=C\c3ccc(OC(=O)c4ccco4)c(Br)c3)C(=N)N21`, the Potency is reported as inconclusive: 31.6 µM [inhibitor, partial curve].
For `Cc1ccc(S(=O)(=O)Oc2ccc(/C=C3\C(=N)N4N=C(S(C)(=O)=O)SC4=NC3=O)cc2)cc1`, the Potency was inconclusive: 56.2 µM [inhibitor, partial curve].
In the case of `Cc1ccc(S(=O)(=O)Oc2ccc(/C=C3/C(=N)N4C(=NC3=O)SN=C4S(C)(=O)=O)cc2)cc1`, the Potency is reported as inconclusive: 5.32 µM [inhibitor, single point].
For `O=C(O)Cn1cc(/C=c2/sc3nc4ccccc4n3c2=O)c2ccccc21`, the Potency was inconclusive: 35.5 µM [inhibitor, single point].
With `Cc1ccccc1N/N=C/c1sc(=O)n(Cc2cccc(C(=O)O)c2)c1Cl` the Potency was inconclusive: 79.4 µM [inhibitor, partial curve].

From PubChem BioAssay AID651768 (National Center for Advancing Translational Sciences (NCATS), 2012)
Note: nearly all actives have a fitted effect of over 55% in size.
Potency is the fitted concentration of half-maximal effect.
